Test results as given in publication PMC10403363, “Mechanism of ribosome-associated mRNA degradation during tubulin autoregulation” (Molecular Cell, 2023).

T1: TurboID-FLAG-TTC5 (human) (UniProt Q8N0Z6)
T1 sequence: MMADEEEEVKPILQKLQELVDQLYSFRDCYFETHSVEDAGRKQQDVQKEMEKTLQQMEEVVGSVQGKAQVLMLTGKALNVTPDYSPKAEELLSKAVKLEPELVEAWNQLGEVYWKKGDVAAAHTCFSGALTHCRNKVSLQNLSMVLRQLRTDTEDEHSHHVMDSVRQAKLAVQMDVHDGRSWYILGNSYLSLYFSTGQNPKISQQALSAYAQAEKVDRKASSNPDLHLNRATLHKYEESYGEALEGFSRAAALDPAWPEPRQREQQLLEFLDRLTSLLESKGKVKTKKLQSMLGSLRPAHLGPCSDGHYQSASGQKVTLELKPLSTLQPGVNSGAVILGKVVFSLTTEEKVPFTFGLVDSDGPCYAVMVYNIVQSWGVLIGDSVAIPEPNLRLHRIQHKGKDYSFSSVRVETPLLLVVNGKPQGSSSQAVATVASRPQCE


Assays:
[1] = biological target: T1, TurboID-FLAG-TTC5 (human); experiment: proximity labelling; TurboID-FLAG-TTC5 (WT or K97A) in TTC5-KO HEK T-REx cells; DMSO, colchicine or nocodazole 30 min, then 50 uM biotin 2.5 h; streptavidin beads, stringent washes, TMT quantitative mass spectrometry
[2] = biological target: T1, TurboID-FLAG-TTC5 (human); experiment: proximity labelling; TurboID-TTC5 cell lines transfected with SCAPER-FLAG; colchicine 10 uM 30 min, then 50 uM biotin 2.5 h; biotinylated proteins isolated on streptavidin beads and blotted with anti-SCAPER

| binding [1] | binding [2] | Binder |
| --- | --- | --- |
| binds |  | SCAPER (S-phase cyclin A associated protein residing in the ER), endogenous (protein, UniProt Q9BY12 1-1400, biotinylated by TurboID in cells) MMASFQRSNSHDKVRRIVAEEGRTARNLIAWSVPLESKDDDGKPKCQTGGKSKRTIQGTHKTTKQSTAVDCKITSSTTGDKHFDKSPTKTRHPRKIDLRARYWAFLFDNLRRAVDEIYVTCESDQSVVECKEVLMMLDNYVRDFKALIDWIQLQEKLEKTDAQSRPTSLAWEVKKMSPGRHVIPSPSTDRINVTSNARRSLNFGGSTGTVPAPRLAPTGVSWADKVKAHHTGSTASSEITPAQSCPPMTVQKASRKNERKDAEGWETVQRGRPIRSRSTAVMPKVSLATEATRSKDDSDKENVCLLPDESIQKGQFVGDGTSNTIESHPKDSLHSCDHPLAEKTQFTVSTLDDVKNSGSIRDNYVRTSEISAVHIDTECVSVMLQAGTPPLQVNEEKFPAEKARIENEMDPSDISNSMAEVLAKKEELADRLEKANEEAIASAIAEEEQLTREIEAEENNDINIETDNDSDFSASMGSGSVSFCGMSMDWNDVLADYEARESWRQNTSWGDIVEEEPARPPGHGIHMHEKLSSPSRKRTIAESKKKHEEKQMKAQQLREKLREEKTLKLQKLLEREKDVRKWKEELLDQRRRMMEEKLLHAEFKREVQLQAIVKKAQEEEAKVNEIAFINTLEAQNKRHDVLSKLKEYEQRLNELQEERQRRQEEKQARDEAVQERKRALEAERQARVEELLMKRKEQEARIEQQRQEKEKAREDAARERARDREERLAALTAAQQEAMEELQKKIQLKHDESIRRHMEQIEQRKEKAAELSSGRHANTDYAPKLTPYERKKQCSLCNVLISSEVYLFSHVKGRKHQQAVRENTSIQGRELSDEEVEHLSLKKYIIDIVVESTAPAEALKDGEERQKNKKKAKKIKARMNFRAKEYESLMETKNSGSDSPYKAKLQRLAKDLLKQVQVQDSGSWANNKVSALDRTLGEITRILEKENVADQIAFQAAGGLTALEHILQAVVPATNVNTVLRIPPKSLCNAINVYNLTCNNCSENCSDVLFSNKITFLMDLLIHQLTVYVPDENNTILGRNTNKQVFEGLTTGLLKVSAVVLGCLIANRPDGNCQPATPKIPTQEMKNKPSQGDPFNNRVQDLISYVVNMGLIDKLCACFLSVQGPVDENPKMAIFLQHAAGLLHAMCTLCFAVTGRSYSIFDNNRQDPTGLTAALQATDLAGVLHMLYCVLFHGTILDPSTASPKENYTQNTIQVAIQSLRFFNSFAALHLPAFQSIVGAEGLSLAFRHMASSLLGHCSQVSCESLLHEVIVCVGYFTVNHPDNQVIVQSGRHPTVLQKLCQLPFQYFSDPRLIKVLFPSLIAACYNNHQNKIILEQEMSCVLLATFIQDLAQTPGQAENQPYQPKGKCLGSQDYLELANRFPQQAWEEARQFFLKKEKK |
|  | binds | SCAPER-FLAG overexpressed in HEK293 T-REx cells (protein, UniProt Q9BY12 1-1400, biotinylated by TurboID in cells) MMASFQRSNSHDKVRRIVAEEGRTARNLIAWSVPLESKDDDGKPKCQTGGKSKRTIQGTHKTTKQSTAVDCKITSSTTGDKHFDKSPTKTRHPRKIDLRARYWAFLFDNLRRAVDEIYVTCESDQSVVECKEVLMMLDNYVRDFKALIDWIQLQEKLEKTDAQSRPTSLAWEVKKMSPGRHVIPSPSTDRINVTSNARRSLNFGGSTGTVPAPRLAPTGVSWADKVKAHHTGSTASSEITPAQSCPPMTVQKASRKNERKDAEGWETVQRGRPIRSRSTAVMPKVSLATEATRSKDDSDKENVCLLPDESIQKGQFVGDGTSNTIESHPKDSLHSCDHPLAEKTQFTVSTLDDVKNSGSIRDNYVRTSEISAVHIDTECVSVMLQAGTPPLQVNEEKFPAEKARIENEMDPSDISNSMAEVLAKKEELADRLEKANEEAIASAIAEEEQLTREIEAEENNDINIETDNDSDFSASMGSGSVSFCGMSMDWNDVLADYEARESWRQNTSWGDIVEEEPARPPGHGIHMHEKLSSPSRKRTIAESKKKHEEKQMKAQQLREKLREEKTLKLQKLLEREKDVRKWKEELLDQRRRMMEEKLLHAEFKREVQLQAIVKKAQEEEAKVNEIAFINTLEAQNKRHDVLSKLKEYEQRLNELQEERQRRQEEKQARDEAVQERKRALEAERQARVEELLMKRKEQEARIEQQRQEKEKAREDAARERARDREERLAALTAAQQEAMEELQKKIQLKHDESIRRHMEQIEQRKEKAAELSSGRHANTDYAPKLTPYERKKQCSLCNVLISSEVYLFSHVKGRKHQQAVRENTSIQGRELSDEEVEHLSLKKYIIDIVVESTAPAEALKDGEERQKNKKKAKKIKARMNFRAKEYESLMETKNSGSDSPYKAKLQRLAKDLLKQVQVQDSGSWANNKVSALDRTLGEITRILEKENVADQIAFQAAGGLTALEHILQAVVPATNVNTVLRIPPKSLCNAINVYNLTCNNCSENCSDVLFSNKITFLMDLLIHQLTVYVPDENNTILGRNTNKQVFEGLTTGLLKVSAVVLGCLIANRPDGNCQPATPKIPTQEMKNKPSQGDPFNNRVQDLISYVVNMGLIDKLCACFLSVQGPVDENPKMAIFLQHAAGLLHAMCTLCFAVTGRSYSIFDNNRQDPTGLTAALQATDLAGVLHMLYCVLFHGTILDPSTASPKENYTQNTIQVAIQSLRFFNSFAALHLPAFQSIVGAEGLSLAFRHMASSLLGHCSQVSCESLLHEVIVCVGYFTVNHPDNQVIVQSGRHPTVLQKLCQLPFQYFSDPRLIKVLFPSLIAACYNNHQNKIILEQEMSCVLLATFIQDLAQTPGQAENQPYQPKGKCLGSQDYLELANRFPQQAWEEARQFFLKKEKK |

These are yes or no findings as the source states them, for the method shown. Binding seen in cells or lysates may run through a third protein. Here binding means that the protein was enriched with, or labelled near, the bait; the list need not be complete. Where a sequence is shown, tags or fusion partners need not be part of it.
